Laboratory results reported in patent publication US11167015B2, “Arginine and its use as a T cell modulator” (INSTITUTE FOR RESEARCH IN BIOMEDICINE, priority 2016, dated 2021).

Key:
[1] = system: human naïve CD4+ T cells; experiment: kinetic metabolome analysis of activated T cells; type: cell-based; conditions: added to the culture medium at the same concentration as L-arginine (3 mM)
[2] = system: activated CD4+ T cells; experiment: IL-2 withdrawal assay and assessment of cell viability, CD4+ T cells; type: cell-based, human; conditions: metabolites 3 mM, except for spermidine 0.1 mM; 5 days after IL-2 withdrawal
Method: Naïve CD4 T cells were activated with plate-bound CD3 and CD28 antibodies. 48 h after activation IL-2 was added to culture media (500 U ml^−1). After a further 3 days of culturing, cells were washed, counted and equal cell numbers were plated in medium devoid of IL-2. The withdrawal medium was no longer supplemented with e.g. L-arginine. Cell viability was assessed with annexin V.

With NCCC[C@H](N)C(=O)O [L-ornithine, reference compound] the effects on metabolism [1] was “only had minor effects” and the “survival of activated CD4+ T cells in the absence of exogenous cytokines” value [2] was “had no effect”.
